# Experiment: soluble on expression in E. coli; label from the status in PepcDB or PDB records
sequence,measurement,value
SNADVTPLSLGIETLGGIMTKLITRNTTIPTKKSQVFSTAADGQTQVQIKVFQGEREMATSNKLLGQFSLVGIPPAPRGVPQVEVTFDIDANGIVNVSARDRGTGKEQQIVIQSSGGLSKDQIENMIKEAEKNAAEDAKRKELVEVINQAE,soluble on expression in E. coli,soluble

# Reference: the DeepSol protein solubility set
